# At least one structure is not confirmed: it was looked up by name or label, or the drawing left a doubt.
# Tested on: mycobacteria
# Format: cell-based, Mycobacterium species
structure (smiles),measurement,value
O=C(O)CC(C(=O)O)C(O)C(=O)O (stereo not shown) [iso-citrate],reduction in TTD,did not show a reduction in TTD
